# Source: the supplement of paper PMC11348887
# Where a name gives a salt, the structure may show the parent alone. The list shows a part of the results. Small differences around the control level are noise.
# Test system: hPSC-derived cortical neurons (WA09)
# Experiment: nucleus area z-score vs screen plate; higher = larger nuclei (more mature)
# Conditions: 5 µM; treatment: days 7-14 after plating, readout day 21
row,Compound,nucleus area z-score
1,C#C[C@]1(O)CC[C@H]2[C@@H]3CCC4=CC(=O)CC[C@@H]4[C@H]3CC[C@@]21C [Norethindrone],-0.341
2,CN(C)c1nc(N(C)C)nc(N(C)C)n1 [Altretamine],-0.203
3,COc1cc(N2CCC(N)CC2)ccc1Nc1ncc(Cl)c(-c2c[nH]c3ccccc23)n1,-7.71
4,CCCCCCNC(=O)n1cc(F)c(=O)[nH]c1=O [Carmofur],-0.738
5,NNC(=O)c1ccncc1.Nc1ccc(C(=O)O)c(O)c1 [Pasiniazid],0.268
6,COc1c2ccoc2cc2oc(=O)ccc12 [Bergapten],1.31
7,CO/N=C(\C(=O)N[C@@H]1C(=O)N2C(C(=O)O)=C(COC(C)=O)CS[C@H]12)c1csc(N)n1 [Cefotaxime sodium],1.35
8,C=CCNC1=C2C[C@@H](C)C[C@H](OC)[C@H](O)[C@@H](C)/C=C(\C)[C@H](OC(N)=O)[C@@H](OC)/C=C\C=C(/C)C(=O)NC(=CC1=O)C2=O [17-AAG (Tanespimycin)],2.43
9,C=CC(=O)Nc1cccc(Oc2nc(Nc3ccc(N4CCN(C)CC4)cc3)nc3ccsc23)c1,-3.09
10,CC(S)C(=O)NCC(=O)O (centres undefined) [Tiopronin],0.116
11,O=C(O)CC[C@@H](O)C(=O)O [Disodium (R)-2-Hydroxyglutarate],1.33
12,CNC(=O)Nc1ccc(-c2nc(N3CC4CCC(C3)O4)c3cnn(C4CCC5(CC4)OCCO5)c3n2)cc1,-3.96
13,Cn1cc(-c2ccc(S(=O)(=O)n3ccc(/C=C/C(=O)Nc4ccccc4N)c3)cc2)cn1,-0.317
14,Nc1ncnc2c1c(-c1cccc(OCc3ccccc3)c1)cn2C1CC(CN2CCCC2)C1 (centres undefined),-6.77
15,CN(C)C(=O)c1ccc(S(=O)(=O)c2ccc(NC(=O)[C@@](C)(O)C(F)(F)F)c(Cl)c2)cc1,0.917
16,CO[C@@]12[C@H](COC(N)=O)C3=C(C(=O)C(C)=C(N)C3=O)N1C[C@@H]1N[C@@H]12 [Mitomycin C],-17
17,CCOC(=O)C1=C(C)NC(C)=C(C(=O)OC)C1c1cccc([N+](=O)[O-])c1 (centres undefined) [Nitrendipine],0.624
18,C#Cc1cccc(Nc2ncnc3cc(OCCOC)c(OCCOC)cc23)c1 [Erlotinib HCl (OSI-744)],1
19,CC(N)C12CC3CC(CC(C3)C1)C2 (centres undefined) [Rimantadine],0.0352
20,O=C(Nc1cccc2cccnc12)c1ccc(N2C(=O)[C@@H]3[C@H](C2=O)[C@@H]2C=C[C@H]3C2)cc1 [IWR-1-endo],-0.421

# Three compounds already listed, sorted by number of heavy atoms, ascending:
row,Compound,nucleus area z-score
18,C#Cc1cccc(Nc2ncnc3cc(OCCOC)c(OCCOC)cc23)c1 [Erlotinib HCl (OSI-744)],1
20,O=C(Nc1cccc2cccnc12)c1ccc(N2C(=O)[C@@H]3[C@H](C2=O)[C@@H]2C=C[C@H]3C2)cc1 [IWR-1-endo],-0.421
13,Cn1cc(-c2ccc(S(=O)(=O)n3ccc(/C=C/C(=O)Nc4ccccc4N)c3)cc2)cn1,-0.317

# (more compounds)

row,Compound,nucleus area z-score
1,N#C/C(=C1/SC[C@@H](c2ccc(Cl)cc2Cl)S1)n1ccnc1 [Luliconazole],-0.0809
2,O=C(O)c1ccc2c(c1)nc(Nc1cccc(Cl)c1)c1ccncc12 [CX-4945 (Silmitasertib)],0.00166
3,CN(C)CCOc1ccc(-c2nc(-c3ccncc3)c(-c3ccc4c(c3)CC/C4=N\O)[nH]2)cc1,-14
4,CN1[C@@H]2CC[C@H]1C[C@@H](OC(c1ccccc1)c1ccccc1)C2 [Benztropine mesylate],1.28
5,c1ccc(-c2ccc(C(c3ccccc3)n3ccnc3)cc2)cc1 (centres undefined) [Bifonazole],-0.721
6,CNCc1ccc(C)c(NC(=O)c2ccc(Nc3nc(-c4ccccc4)c4ccccc4n3)cc2)c1,-4.34
7,CC(=O)NC(CC(C)C)C(=O)O (centres undefined) [Acetylleucine],0.834
8,CCCCOc1ccc(C(=O)CCN2CCCCC2)cc1 [Dyclonine HCl],-0.747
9,Clc1ccc(COC(Cn2ccnc2)c2ccc(Cl)cc2Cl)cc1 (centres undefined) [Econazole nitrate],-2.55
10,OC(CC1c2ccccc2-c2cncn21)C1CCCCC1 (centres undefined),0.226
11,O=C1c2c(O)cccc2C([C@@H]2O[C@H](CO)[C@@H](O)[C@H](O)[C@H]2O)c2cc(CO)cc(O)c21 (some centres undefined) [Aloin],-0.214
12,CN1CC(=O)N2[C@H](c3ccc4c(c3)OCO4)c3[nH]c4ccccc4c3C[C@@H]2C1=O [Tadalafil],0.0277
13,CNCC[C@H](Oc1cccc2ccccc12)c1cccs1 [Duloxetine HCl],-1.69
14,O=C(O)Cc1ccccc1Nc1c(Cl)cccc1Cl [Diclofenac Diethylamine],0.0653
15,CCN1CCN(Cc2ccc(-c3cc4c(N[C@H](C)c5ccccc5)ncnc4[nH]3)cc2)CC1,0.811
16,N=C(N)NC(=N)NCCc1ccccc1 [Phenformin HCl],0.427
17,CC1=Nc2ccc(Cl)cc2S(=O)(=O)N1 [Diazoxide],0.445
18,O=C(Nc1ccc(OC(F)(F)F)cc1)c1sccc1NCc1ccnc2ccccc12,1.41
19,Cc1c(NC(=O)OC[C@@H]2COCCN2)cn2ncnc(Nc3ccc4c(cnn4Cc4cccc(F)c4)c3)c12,2.7

# Compounds above with an aryl methoxy group:
row,Compound,nucleus area z-score
3,COc1cc(N2CCC(N)CC2)ccc1Nc1ncc(Cl)c(-c2c[nH]c3ccccc23)n1,-7.71
6,COc1c2ccoc2cc2oc(=O)ccc12 [Bergapten],1.31
